These results are taken from patent US20130079280A1.

By UniProt entry, the sequences of proteins in these tests, tags left out. Residues count along the entry.
UniProt P27548, residues 112-260: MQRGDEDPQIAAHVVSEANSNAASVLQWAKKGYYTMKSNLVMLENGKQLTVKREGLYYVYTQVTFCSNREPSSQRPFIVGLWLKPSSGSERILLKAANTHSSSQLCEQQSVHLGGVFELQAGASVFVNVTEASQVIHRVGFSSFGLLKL
UniProt O14763, residues 54-182: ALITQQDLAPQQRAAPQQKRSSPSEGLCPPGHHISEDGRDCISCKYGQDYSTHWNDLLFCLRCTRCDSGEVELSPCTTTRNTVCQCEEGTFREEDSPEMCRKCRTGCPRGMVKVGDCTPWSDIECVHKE
UniProt P29965, residues 113-261: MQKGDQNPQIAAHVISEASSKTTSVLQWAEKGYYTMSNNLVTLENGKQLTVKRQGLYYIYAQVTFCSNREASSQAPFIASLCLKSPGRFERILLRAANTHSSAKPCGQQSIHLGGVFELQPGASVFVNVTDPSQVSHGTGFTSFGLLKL

No constants are given. Whether binding was seen depends on the method and setting. Some results given as binding are weak or reduced against the parent protein; the word gives no strength.

Experiment [1] concerns the target recombinant Murine CD40L (E. coli produced) (murine) (UniProt P27548). The experiment is described as follows: SPR competition (GLC chip): 0.5 ug/ml MuCD40L preincubated with the Tn3 construct, binding to immobilised Murine CD40-Fc recorded.
Experiment [2] addresses human TRAIL R2-Fc fusion protein (human) (UniProt O14763). The experiment is described as follows: competition ELISA: plate coated with A9(1C12), 0.75 nM biotinylated TRAIL R2-Fc, competitor titrated, streptavidin-HRP/TMB. (In general: In an ELISA, binding on a coated surface is turned into a signal by an enzyme label.)
Experiment [3] has as its target Human CD40L, recombinant (E. coli produced) (human) (UniProt P29965). The experiment in a line: AlphaScreen bridging assay: purified D1-1E11-79, biotinylated huCD40L (streptavidin beads), TrailR2-Fc titrated 0-42 nM (Protein A beads); signal needs both targets bound at once. Background: In Alpha technology, singlet oxygen from a donor bead excites a nearby acceptor bead.

Experiment [4] has as its target human TRAIL R2-Fc fusion protein (human) (UniProt O14763). The description is as above.
Experiment [5] has the same target. The experiment in a line: bridging ELISA: plate coated with TRAIL R2-Fc (1 ug/ml), D1-1E11-79 titrated, biotinylated Synagis, HRP-streptavidin; signal needs both targets bound at once.
Experiment [6] addresses Human CD40L, recombinant (E. coli produced) (human) (UniProt P29965). The experiment in a line: AlphaScreen bridging assay: purified D1-1E11-79, biotinylated huCD40L (streptavidin beads), Synagis titrated 0-42 nM (Protein A beads); signal needs both targets bound at once.
Experiment [7] concerns the target human TRAIL R2-Fc fusion protein (human) (UniProt O14763). The experiment in a line: ELISA; plate coated with TRAIL R2-Fc, biotinylated Synagis detected.
The target is the same in experiment [8]. The experiment is described as follows: ELISA.
In experiment [9] the target is Human CD40L, recombinant (E. coli produced) (human) (UniProt P29965). The experiment is described as follows: AlphaScreen.
The target in experiment [10] is human TRAIL R2-Fc fusion protein (human) (UniProt O14763). The experiment is described as follows: AlphaScreen.
The target in experiment [11] is Human CD40L, recombinant (E. coli produced) (human) (UniProt P29965). The experiment is described as follows: AlphaScreen, simultaneous binding.
The target of experiment [12] is human TRAIL R2-Fc fusion protein (human) (UniProt O14763). The experiment is described as follows: AlphaScreen, simultaneous binding.
Experiment [13] deals with recombinant Murine CD40L (E. coli produced) (murine) (UniProt P27548). The experiment is described as follows: SPR competition; 0.5 ug/ml MuCD40L over immobilized Murine CD40-Fc.
Experiment [14] addresses human TRAIL R2-Fc fusion protein (human) (UniProt O14763). The experiment is described as follows: capture ELISA: His-tagged construct captured from E. coli media on anti-His antibody, biotinylated TRAIL R2 (axis: TrailR2-Fc) titrated, streptavidin-HRP/TMB.
Experiment [15] has as its target TRAIL R2, recombinant (format not stated) (human) (UniProt O14763). The experiment in a line: capture ELISA; Tn3 captured on anti-His, biotinylated TRAIL R2.
Experiment [16] deals with human TRAIL R2-Fc fusion protein (human) (UniProt O14763). The experiment is described as follows: competition ELISA; F4 mod 1 coated plate, 0.75 nM human TRAIL R2-Fc.

B1: M13, monovalent murine CD40L-specific Tn3 (designed binder)
chain: AIEVKDVTDTTALITWHDAFGYDFGCELTYGIKDVPGDRTTIDLPDHFHNYSIGNLKPDTEYEVSLICANDHGFDSNPAKETFTTGGGTLGHHHHHHHH
B1: the binding result in experiment [1] is on record as “binds”.

B2: A2 (1E11), bivalent linear tandem Tn3 (designed binder)
chain: SGGGGSAIEVKDVTDTTALITWAKPWVDPPPLWGCELAYGIKDVPGDRTTIDLQQKHTAYSIGNLKPDTEYEVSLICFDPYGAKSNPAKETFTTGGGGSGGGGSGGGGSAIEVKDVTDTTALITWAKPWVDPPPLWGCELAYGIKDVPGDRTTIDLQQKHTAYSIGNLKPDTEYEVSLICFDPYGAKSNPAKETFTTGGGGSGGGGSGTLGHHHHHHHH
With B2, the binding result in experiment [2] is reported as “binds”.

B3: D1-1E11-79, trispecific/trivalent Tn3 scaffold (designed binder)
chain: IEVKDVTDTTALITWSPGERIWMFTGCELTYGIKDVPGDRTTIDLTEDENQYSIGNLKPDTEYEVSLICPNYERISNPAKETFTTGGGGSGGGGSGGGGSIEVKDVTDTTALITWAKPWVDPPPLWGCELAYGIKDVPGDRTTIDLQQKHTAYSIGNLKPDTEYEVSLICFDPYGAKSNPAKETFTTGGGGSGGGGSGGGGSIEVKDVTDTTALITWIPPHNADSSIIGCELTYGIKDVPGDRTTIDLYDVAFDYSIGNLKPDTEYEVSLICDTFYGFDSNPAKETFTT
Turning to B3, the binding entry in experiment [3], in experiment [4], in experiment [5], in experiment [6], in [7] and in [8] was “binds” each time. For the same molecule, the binding entry in experiment [9], in experiment [10], in experiment [11] and in [12] was “binds” throughout.

B4: A3 (1E11), tetravalent linear tandem Tn3 (designed binder)
chain: SGGGGSAIEVKDVTDTTALITWAKPWVDPPPLWGCELAYGIKDVPGDRTTIDLQQKHTAYSIGNLKPDTEYEVSLICFDPYGAKSNPAKETFTTGGGGSGGGGSGGGGSAIEVKDVTDTTALITWAKPWVDPPPLWGCELAYGIKDVPGDRTTIDLQQKHTAYSIGNLKPDTEYEVSLICFDPYGAKSNPAKETFTTGGGGSGGGGSGGGGSAIEVKDVTDTTALITWAKPWVDPPPLWGCELAYGIKDVPGDRTTIDLQQKHTAYSIGNLKPDTEYEVSLICFDPYGAKSNPAKETFTTGGGGSGGGGSGGGGSAIEVKDVTDTTALITWAKPWVDPPPLWGCELAYGIKDVPGDRTTIDLQQKHTAYSIGNLKPDTEYEVSLICFDPYGAKSNPAKETFTTGGGGSGGGGSGTLGHHHHHHHH
As for B4, the binding result in experiment [2] was “binds”.

B5: C2 (M13), bivalent tandem M13-M13, 3 Gly4Ser units, linker length 23 (designed binder)
chain: AIEVKDVTDTTALITWHDAFGYDFGCELTYGIKDVPGDRTTIDLPDHFHNYSIGNLKPDTEYEVSLICANDHGFDSNPAKETFTTGGGGSGGGGSGGGGSRLDAPGQIEVKDVTDTTALITWHDAFGYDFGCELTYGIKDVPGDRTTIDLPDHFHNYSIGNLKPDTEYEVSLICANDHGFDSNPAKETFTTGGGTLGHHHHHHHH
For B5, the binding result in [13] was “binds”.

B6: C3 (M13), bivalent tandem M13-M13, 5 Gly4Ser units, linker length 33 (designed binder)
chain: AIEVKDVTDTTALITWHDAFGYDFGCELTYGIKDVPGDRTTIDLPDHFHNYSIGNLKPDTEYEVSLICANDHGFDSNPAKETFTTGGGGSGGGGSGGGGSGGGGSGGGGSRLDAPGQIEVKDVTDTTALITWHDAFGYDFGCELTYGIKDVPGDRTTIDLPDHFHNYSIGNLKPDTEYEVSLICANDHGFDSNPAKETFTTGGGTLGHHHHHHHH
Regarding B6, the binding result in experiment [13] was “binds”.

B7: C1 (M13), bivalent tandem M13-M13, 1 Gly4Ser unit, linker length 13 (designed binder)
chain: AIEVKDVTDTTALITWHDAFGYDFGCELTYGIKDVPGDRTTIDLPDHFHNYSIGNLKPDTEYEVSLICANDHGFDSNPAKETFTTAGGGGSRLDAPGQIEVKDVTDTTALITWHDAFGYDFGCELTYGIKDVPGDRTTIDLPDHFHNYSIGNLKPDTEYEVSLICANDHGFDSNPAKETFTTGGGTLGHHHHHHHH
Turning to B7, in [1], the binding entry was “binds”.

B8: A1 (1E11), monovalent TRAIL R2-specific Tn3 scaffold (designed binder)
chain: AIEVKDVTDTTALITWAKPWVDPPPLWGCELAYGIKDVPGDRTTIDLQQKHTAYSIGNLKPDTEYEVSLICFDPYGAKSNPAKETFTTGGGTLGHHHHHHHH
In the case of B8, the binding result in experiment [14], in experiment [2] and in experiment [15] was “binds” throughout.

B9: F4 mod 1, cyno cross reactive TRAIL R2-binding Tn3 monomer (designed binder)
chain: AIEVKDVTDTTALITWAKPWVDPPPLWGCELAYGIKDVPGDRTTIGLQQKHTAYSIGNLKPDTEYEVSLICFDPYGLKSRPAKETFTTGGGTLGHHHHHHHH
Regarding B9, the binding entry in [16] was “binds”.

B10: C4 (M13), bivalent tandem M13-M13, 7 Gly4Ser units, linker length 43 (designed binder)
chain: AIEVKDVTDTTALITWHDAFGYDFGCELTYGIKDVPGDRTTIDLPDHFHNYSIGNLKPDTEYEVSLICANDHGFDSNPAKETFTTGGGGSGGGGSGGGGSGGGGSGGGGSGGGGSGGGGSRLDAPGQIEVKDVTDTTALITWHDAFGYDFGCELTYGIKDVPGDRTTIDLPDHFHNYSIGNLKPDTEYEVSLICANDHGFDSNPAKETFTTGGGTLGHHHHHHHH
For B10, the binding entry in [13] is listed as “binds”.
